No constants are given. Whether binding was seen depends on the method and setting. In cells and extracts the contact can be indirect. Some results given as binding are weak or reduced against the parent protein; the word gives no strength.
Molecular target: Flag-CHRNA5 (UniProt P30532)
Assay: co-IP; Flag-CHRNA5 overexpressed in Cal27 and Tu686 cells; IP with magnetic beads conjugated with anti-Flag antibody; western blot with antibodies against FLAG and CES1; IgG as negative control

Protein sequences, listed by entry. Tags and fused reporters are not part of them. Residues count along the entry.
UniProt P30532, residues 23-468: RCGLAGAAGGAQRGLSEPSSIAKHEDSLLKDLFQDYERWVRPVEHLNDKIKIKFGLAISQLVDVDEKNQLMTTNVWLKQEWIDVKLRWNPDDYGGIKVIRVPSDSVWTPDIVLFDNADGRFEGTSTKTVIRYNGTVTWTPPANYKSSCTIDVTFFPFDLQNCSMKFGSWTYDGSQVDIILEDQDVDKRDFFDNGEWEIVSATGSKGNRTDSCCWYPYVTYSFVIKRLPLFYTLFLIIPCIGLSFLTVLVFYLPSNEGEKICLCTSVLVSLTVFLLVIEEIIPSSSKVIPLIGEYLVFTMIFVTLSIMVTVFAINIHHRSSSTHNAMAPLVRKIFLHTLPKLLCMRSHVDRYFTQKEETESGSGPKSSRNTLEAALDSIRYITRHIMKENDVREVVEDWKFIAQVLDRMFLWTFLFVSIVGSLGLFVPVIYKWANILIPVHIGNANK

B1: CES1 (enzyme, UniProt P23141 18-567)
chain: GHPSSPPVVDTVHGKVLGKFVSLEGFAQPVAIFLGIPFAKPPLGPLRFTPPQPAEPWSFVKNATSYPPMCTQDPKAGQLLSELFTNRKENIPLKLSEDCLYLNIYTPADLTKKNRLPVMVWIHGGGLMVGAASTYDGLALAAHENVVVVTIQYRLGIWGFFSTGDEHSRGNWGHLDQVAALRWVQDNIASFGGNPGSVTIFGESAGGESVSVLVLSPLAKNLFHRAISESGVALTSVLVKKGDVKPLAEQIAITAGCKTTTSAVMVHCLRQKTEEELLETTLKMKFLSLDLQGDPRESQPLLGTVIDGMLLLKTPEELQAERNFHTVPYMVGINKQEFGWLIPMQLMSYPLSEGQLDQKTAMSLLWKSYPLVCIAKELIPEATEKYLGGTDDTVKKKDLFLDLIADVMFGVPSVIVARNHRDAGAPTYMYEFQYRPSFSSDMKPKTVIGDHGDELFSVFGAPFLKEGASEEEIRLSKMVMKFWANFARNGNPNGEGLPHWPEYNQKEGYLQIGANTQAAQKLKDKEVAFWTNLFAKKAVEKPPQTEHIEL
- binding: binds

Source: article PMC11522702
